Source: PubChem BioAssay AID248 (DTP/NCI, 2004)
The list is a part of this screen's results and no random one: it gathers tests that were run many times, whatever their T/C, doses with no T/C, and many T/C values between a quarter and a half above the control. Further doses and runs are listed elsewhere. T/C: endpoint of the treated group in % of that of the vehicle group. Some entries give survivors of the animals treated and no T/C: the source holds a T/C of zero for them, seemingly a mark for toxic or unscored doses. Some doses without a T/C left all or most animals alive at the check, yet need not have been tolerated: survival well below the control is almost never listed, so the zero probably covers shortened survival too. Counts of survivors are from the toxicity check (mostly the fifth day) where no day follows; animals may have died later. Schedule codes are those of the source, taken here to give the interval after Q, in days (D) or hours (H), and the number of doses after X. Some entries were tested several times; the values are given in rising order. For survival time, the PubChem record calls one and a half times the control and up active, and a quarter to a half above the control has no call in these data; cut-offs in other NCI protocols can differ. Signs of the kind (2×) give the number of equal values in this list. Some T/C values carry the count of animals alive at the toxicity check (mostly the fifth day); without a count, all were alive then.

Tested on: L1210 leukemia ip in BDF1 mice, survival T/C
Experiment: NCI In Vivo Anticancer Drug Screen. Data for tumor model L1210 Leukemia (intraperitoneal) in B6D2F1 (BDF1) mice
Conditions: higher T/C = longer survival
[1] = T/C endpoint: median survival time, dose: 8.0 mg/kg/injection, schedule: Q01DX009 (ip), vehicle: water

**Q.** With `CC[n+]1ccc(Nc2ccc(NC(=O)c3ccc(Nc4cc[n+](CC)c5ccc(N)cc45)cc3)cc2)cc1` as the compound, how does the T/C (T/C endpoint: mean survival time, dose: 0.05 mg/kg/injection, schedule: Q01DX009 (ip), vehicle: water) read?
**A.** Its T/C is 140 % of control.

**Q.** And the T/C (T/C endpoint: mean survival time, dose: 0.37 mg/kg/injection, schedule: Q01DX009 (ip), vehicle: saline)?
**A.** The T/C was 127 and 141 % of control.

**Q.** And the T/C (T/C endpoint: mean survival time, dose: 0.5 mg/kg/injection, schedule: Q01DX009 (ip), vehicle: water)?
**A.** The T/C was 129 % of control.

**Q.** And the T/C (T/C endpoint: mean survival time, dose: 0.5 mg/kg/injection, schedule: Q03HX016 (ip), vehicle: water)?
**A.** Its T/C is 147 % of control.

**Q.** What about the T/C (T/C endpoint: mean survival time, dose: 0.5 mg/kg/injection, schedule: Q03HX024 (ip), vehicle: water) of the same compound?
**A.** Its T/C is 136 % of control.

**Q.** What about the T/C (T/C endpoint: mean survival time, dose: 0.5 mg/kg/injection, schedule: Q03HX024 (sc), vehicle: water) of the same compound?
**A.** The T/C was 129 % of control [7 of 8 alive].

**Q.** What about the T/C (T/C endpoint: mean survival time, dose: 1.0 mg/kg/injection, schedule: Q01DX005 (iv), vehicle: water) of the same compound?
**A.** The T/C was 126 % of control.

**Q.** And the T/C (T/C endpoint: mean survival time, dose: 1.0 mg/kg/injection, schedule: Q01DX009 (ip), vehicle: water)?
**A.** The T/C was 146 % of control.

**Q.** And the survivor count (T/C endpoint: mean survival time, dose: 2.0 mg/kg/injection, schedule: Q01DX005 (iv), vehicle: water)?
**A.** The survivor count was 0 of 10.

**Q.** And the T/C (T/C endpoint: mean survival time, dose: 2.0 mg/kg/injection, schedule: Q01DX009 (ip), vehicle: water, evaluated on day 30)?
**A.** The T/C was 218 and 227 % of control.

**Q.** What about the T/C (T/C endpoint: mean survival time, dose: 2.0 mg/kg/injection, schedule: Q01DX009 (ip), vehicle: water, evaluated on day 60) of the same compound?
**A.** The T/C was 183 and 267 % of control.

**Q.** And the survivor count (T/C endpoint: mean survival time, dose: 4.0 mg/kg/injection, schedule: Q01DX005 (iv), vehicle: water)?
**A.** Its survivor count is 0 of 8.

**Q.** What about the T/C (T/C endpoint: mean survival time, dose: 4.0 mg/kg/injection, schedule: Q01DX009 (ip), vehicle: water, evaluated on day 30) of the same compound?
**A.** Its T/C is 155 and 283 % of control.

**Q.** What about the T/C (T/C endpoint: mean survival time, dose: 4.0 mg/kg/injection, schedule: Q01DX009 (ip), vehicle: water, evaluated on day 60) of the same compound?
**A.** The T/C was 221 and 316 % of control.

**Q.** And the T/C (T/C endpoint: mean survival time, dose: 4.0 mg/kg/injection, schedule: Q03HX008 (ip), vehicle: water)?
**A.** Its T/C is 130 % of control.

**Q.** And the T/C (T/C endpoint: mean survival time, dose: 4.0 mg/kg/injection, schedule: Q03HX024 (sc), vehicle: water)?
**A.** The T/C was 135 % of control.

**Q.** What about the T/C (T/C endpoint: mean survival time, dose: 4.0 mg/kg/injection, schedule: Q04DX003 (ip), vehicle: water, evaluated on day 30) of the same compound?
**A.** The T/C was 140 % of control.

**Q.** And the T/C (T/C endpoint: mean survival time, dose: 4.0 mg/kg/injection, schedule: Q04DX003 (ip), vehicle: water, evaluated on day 60)?
**A.** Its T/C is 145 % of control.

**Q.** And the T/C (T/C endpoint: mean survival time, dose: 5.0 mg/kg/injection, schedule: Q01DX001 (ip), vehicle: saline)?
**A.** The T/C was 127 % of control.

**Q.** And the T/C (T/C endpoint: mean survival time, dose: 5.4 mg/kg/injection, schedule: Q01DX009 (ip), vehicle: saline)?
**A.** The T/C was 147 % of control.

**Q.** And the T/C (T/C endpoint: mean survival time, dose: 8.0 mg/kg/injection, schedule: Q01DX001 (ip), vehicle: saline)?
**A.** The T/C was 133 % of control.

**Q.** And the T/C (T/C endpoint: mean survival time, dose: 8.0 mg/kg/injection, schedule: Q01DX001 (ip), vehicle: water)?
**A.** Its T/C is 132 % of control.

**Q.** And the T/C (T/C endpoint: mean survival time, dose: 8.0 mg/kg/injection, schedule: Q01DX009 (ip), vehicle: water, evaluated on day 30)?
**A.** Its T/C is 145 % of control.

**Q.** And the T/C (T/C endpoint: mean survival time, dose: 8.0 mg/kg/injection, schedule: Q01DX009 (ip), vehicle: water, evaluated on day 60)?
**A.** Its T/C is 128 % of control.

**Q.** What about the T/C (T/C endpoint: mean survival time, dose: 8.0 mg/kg/injection, schedule: Q03HX008 (ip), vehicle: water) of the same compound?
**A.** Its T/C is 138 % of control.

**Q.** And the T/C (T/C endpoint: mean survival time, dose: 8.0 mg/kg/injection, schedule: Q08DX002 (ip), vehicle: water)?
**A.** Its T/C is 143 % of control.

**Q.** And the T/C (T/C endpoint: mean survival time, dose: 8.0 mg/kg/injection, schedule: Q08DX002 (oral), vehicle: water)?
**A.** Its T/C is 126 % of control.

**Q.** And the T/C (T/C endpoint: mean survival time, dose: 12.0 mg/kg/injection, schedule: Q01DX001 (ip), vehicle: saline)?
**A.** The T/C was 148 % of control.

**Q.** What about the T/C (T/C endpoint: mean survival time, dose: 12.5 mg/kg/injection, schedule: Q01DX001 (ip), vehicle: saline) of the same compound?
**A.** Its T/C is 129 % of control.

**Q.** What about the T/C (T/C endpoint: mean survival time, dose: 16.0 mg/kg/injection, schedule: Q01DX001 (ip), vehicle: water) of the same compound?
**A.** Its T/C is 147 % of control.

**Q.** And the T/C (T/C endpoint: mean survival time, dose: 16.0 mg/kg/injection, schedule: Q03HX008 (ip), vehicle: water)?
**A.** Its T/C is 142 % of control [9 of 10 alive].

**Q.** What about the T/C (T/C endpoint: mean survival time, dose: 16.0 mg/kg/injection, schedule: Q08DX002 (oral), vehicle: water) of the same compound?
**A.** The T/C was 128 % of control [9 of 10 alive].

**Q.** What about the survivor count (T/C endpoint: mean survival time, dose: 32.0 mg/kg/injection, schedule: Q01DX001 (ip), vehicle: water) of the same compound?
**A.** Its survivor count is 5 of 10.

**Q.** And the survivor count (T/C endpoint: mean survival time, dose: 32.0 mg/kg/injection, schedule: Q04DX003 (ip), vehicle: water)?
**A.** The survivor count was 0 of 10.

**Q.** And the survivor count (T/C endpoint: mean survival time, dose: 32.0 mg/kg/injection, schedule: Q08DX002 (ip), vehicle: water)?
**A.** Its survivor count is 2 of 10.

**Q.** What about the survivor count (T/C endpoint: mean survival time, dose: 32.0 mg/kg/injection, schedule: Q08DX002 (oral), vehicle: water) of the same compound?
**A.** The survivor count was 6 of 10.

**Q.** What about the survivor count (T/C endpoint: mean survival time, dose: 50.0 mg/kg/injection, schedule: Q01DX001 (ip), vehicle: saline) of the same compound?
**A.** The survivor count was 0 of 6.

**Q.** And the T/C (T/C endpoint: median survival time, dose: 0.25 mg/kg/injection, schedule: Q01DX009 (ip), vehicle: water, evaluated on day 25)?
**A.** The T/C was 120 % of control (2×).

**Q.** What about the T/C (T/C endpoint: median survival time, dose: 0.25 mg/kg/injection, schedule: Q01DX009 (ip), vehicle: water, evaluated on day 33) of the same compound?
**A.** The T/C was 111 and 116 % of control [9 of 10 alive].

**Q.** And the T/C (T/C endpoint: median survival time, dose: 0.5 mg/kg/injection, schedule: Q01DX009 (ip), vehicle: water, evaluated on day 25)?
**A.** Its T/C is 120 and 130 % of control.

**Q.** What about the T/C (T/C endpoint: median survival time, dose: 0.5 mg/kg/injection, schedule: Q01DX009 (ip), vehicle: water, evaluated on day 33) of the same compound?
**A.** Its T/C is 111 and 138 % of control.

**Q.** What about the T/C (T/C endpoint: median survival time, dose: 0.8 mg/kg/injection, schedule: Q03HX024 (ip), vehicle: water, evaluated on day 7) of the same compound?
**A.** The T/C was 138 % of control.

**Q.** What about the T/C (T/C endpoint: median survival time, dose: 0.8 mg/kg/injection, schedule: Q03HX024 (ip), vehicle: water, evaluated on day 32) of the same compound?
**A.** Its T/C is 135 % of control.

**Q.** And the T/C (T/C endpoint: median survival time, dose: 1.0 mg/kg/injection, schedule: Q01DX009 (ip), vehicle: water, evaluated on day 25)?
**A.** Its T/C is 125 and 150 % of control.

**Q.** And the T/C (T/C endpoint: median survival time, dose: 1.0 mg/kg/injection, schedule: Q01DX009 (ip), vehicle: water, evaluated on day 33)?
**A.** The T/C was 111 and 200 % of control.

**Q.** What about the T/C (T/C endpoint: median survival time, dose: 2.0 mg/kg/injection, schedule: Q01DX009 (ip), vehicle: water, evaluated on day 25) of the same compound?
**A.** Its T/C is 160 and 225 % of control.

**Q.** And the T/C (T/C endpoint: median survival time, dose: 2.0 mg/kg/injection, schedule: Q01DX009 (ip), vehicle: water, evaluated on day 33)?
**A.** The T/C was 177 and 255 % of control.

**Q.** And the T/C (T/C endpoint: median survival time, dose: 4.0 mg/kg/injection, schedule: Q01DX009 (ip), vehicle: water, evaluated on day 25)?
**A.** The T/C was 110 % of control [7 of 8 alive].

**Q.** What about the T/C (T/C endpoint: median survival time, dose: 4.0 mg/kg/injection, schedule: Q01DX009 (ip), vehicle: water, evaluated on day 33) of the same compound?
**A.** Its T/C is 133 % of control.

**Q.** And the survivor count (T/C endpoint: median survival time, dose: 4.0 mg/kg/injection, schedule: Q01DX009 (ip), vehicle: water)?
**A.** The survivor count was 3 of 8 and 6 of 10.

**Q.** What about the T/C [1] of the same compound?
**A.** The T/C was 105 % of control.

**Q.** What about the survivor count [1] of the same compound?
**A.** Its survivor count is 0 of 10, 0 of 8, 10 of 10.

**Q.** And the survivor count (T/C endpoint: median survival time, dose: 16.0 mg/kg/injection, schedule: Q01DX009 (ip), vehicle: water)?
**A.** The survivor count was 0 of 10, 0 of 8, 2 of 8.

**Q.** Which results are given for `Cc1ccc(CN(CCO)Cc2ccccc2)cc1`?
**A.** survivor count (T/C endpoint: mean survival time, dose: 25.0 mg/kg/injection, schedule: Q01DX009 (ip), vehicle: water): 3 of 6; survivor count (T/C endpoint: mean survival time, dose: 50.0 mg/kg/injection, schedule: Q01DX009 (ip), vehicle: water): 3 of 6; survivor count (T/C endpoint: mean survival time, dose: 100.0 mg/kg/injection, schedule: Q01DX009 (ip), vehicle: water): 6 of 6; survivor count (T/C endpoint: mean survival time, dose: 200.0 mg/kg/injection, schedule: Q01DX009 (ip), vehicle: water): 1 of 6
